Results are given in words; binding and its absence hold for the method and conditions named. In cells and extracts the contact can be indirect. These calls come from enrichment with a bait or labelling near it, and not all partners need be listed.

Amino acid sequences for entries named in this document (tags omitted). Residues count along the entry.
UniProt P08113, residues 22-802: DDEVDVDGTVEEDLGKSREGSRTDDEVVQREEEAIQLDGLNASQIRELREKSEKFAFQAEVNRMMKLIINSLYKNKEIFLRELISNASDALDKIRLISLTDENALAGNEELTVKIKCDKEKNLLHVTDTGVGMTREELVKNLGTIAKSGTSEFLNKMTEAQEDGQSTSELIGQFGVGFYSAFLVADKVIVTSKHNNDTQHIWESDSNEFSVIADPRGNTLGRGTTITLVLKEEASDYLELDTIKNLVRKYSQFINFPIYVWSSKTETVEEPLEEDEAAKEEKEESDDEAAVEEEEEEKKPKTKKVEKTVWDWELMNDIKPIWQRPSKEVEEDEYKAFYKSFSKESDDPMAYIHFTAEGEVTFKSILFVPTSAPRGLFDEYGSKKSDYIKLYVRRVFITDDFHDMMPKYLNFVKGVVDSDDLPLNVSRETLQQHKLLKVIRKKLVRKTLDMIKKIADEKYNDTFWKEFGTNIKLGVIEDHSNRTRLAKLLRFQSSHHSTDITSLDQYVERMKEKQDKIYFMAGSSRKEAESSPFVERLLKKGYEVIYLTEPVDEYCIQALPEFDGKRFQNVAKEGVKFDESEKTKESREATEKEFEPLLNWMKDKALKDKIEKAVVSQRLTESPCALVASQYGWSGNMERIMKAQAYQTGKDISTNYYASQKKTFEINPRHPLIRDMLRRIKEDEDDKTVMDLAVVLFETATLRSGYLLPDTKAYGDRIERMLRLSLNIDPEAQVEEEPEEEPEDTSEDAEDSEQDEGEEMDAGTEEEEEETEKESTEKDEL
UniProt Q61937: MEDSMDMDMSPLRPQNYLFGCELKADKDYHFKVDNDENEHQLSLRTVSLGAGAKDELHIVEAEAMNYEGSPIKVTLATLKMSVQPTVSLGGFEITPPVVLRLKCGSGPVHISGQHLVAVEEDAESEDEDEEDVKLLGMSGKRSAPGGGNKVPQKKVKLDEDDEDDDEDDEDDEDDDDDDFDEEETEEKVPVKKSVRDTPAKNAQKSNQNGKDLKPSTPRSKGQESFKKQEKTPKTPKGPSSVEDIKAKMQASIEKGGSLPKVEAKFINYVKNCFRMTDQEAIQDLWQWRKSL
UniProt P68372: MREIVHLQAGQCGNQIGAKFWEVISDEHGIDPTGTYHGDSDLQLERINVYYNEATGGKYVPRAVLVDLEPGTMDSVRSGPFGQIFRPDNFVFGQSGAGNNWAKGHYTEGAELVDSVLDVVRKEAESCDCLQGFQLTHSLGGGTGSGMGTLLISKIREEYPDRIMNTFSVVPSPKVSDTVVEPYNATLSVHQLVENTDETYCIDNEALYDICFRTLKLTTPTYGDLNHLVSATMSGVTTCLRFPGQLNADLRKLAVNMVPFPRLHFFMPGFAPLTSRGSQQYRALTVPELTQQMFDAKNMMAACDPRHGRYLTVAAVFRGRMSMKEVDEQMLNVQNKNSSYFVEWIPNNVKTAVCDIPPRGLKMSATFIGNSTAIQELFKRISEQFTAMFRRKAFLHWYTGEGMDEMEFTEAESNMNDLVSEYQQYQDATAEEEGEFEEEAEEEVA

The target in the assay is HA-tagged gp96 (UniProt P08113). Briefly: affinity purification with mass spectrometry; RIPA lysate (500 μg) of preB leukemia cells stably expressing HA-tagged gp96, precleared with normal IgG on protein G beads, then anti-HA (clone HA-7) on protein G beads 3 hours at 4°C; eluate on SDS-PAGE, LC-MS/MS.

For the substance Npm1 (from UniProt Q61937 1-292), the binding entry is given as “binds”. The same measure for TUBB2C (from UniProt P68372 1-445): “binds”.

The values above are taken from paper PMC5215799.
